Results from the supplement of paper PMC12889115.
The other results are listed elsewhere or left out. These are raw signals, not scaled to a control.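 First-pass screen: polymyxin B was added at a level that permeabilizes the Salmonella outer membrane while sparing the inner membrane. DMSO wells, with and without polymyxin B, defined maximum growth. Because plates differed from one another, each plate's data were ranked separately and the compounds with the lowest OD600 were carried forward as hits.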

System: Salmonella enterica serovar Typhimurium SL1344
Assay: bacterial growth OD600 after 18 h with compound and polymyxin B; higher = more bacterial growth (less inhibition)
Conditions: 50 µM, Mueller-Hinton broth

Row | Compound | bacterial growth OD600 (polymyxin B 1 µg/mL) | bacterial growth OD600 (polymyxin B 0.75 µg/mL)
1 | CCOc1cc(CN2CC[C@@H](N3CCC(O)CC3)[C@H](O)C2)ccc1O | 0.952 | –
2 | COc1ccc(/C=C/C(=O)N2CCc3c(cnc(C)c3CNC(=O)Cc3ccsc3)C2)cc1 | – | 0.819
3 | C/C=C(\C)CN1Cc2cc(OC)ccc2OC(CC)C1 (stereo unspecified) | – | 0.849
4 | CN(C)C(=O)c1ccc(N2CCC(NCCC3(c4ccccc4)CCOC(C)(C)C3)CC2)cc1 (stereo unspecified) | – | 0.799
5 | COCCN1C(=O)CC(CC(=O)N2CCN(c3nc(C)cnc3C)CC2)(c2ccccc2F)C1=O (stereo unspecified) | – | 0.832
6 | CCCc1ccc2oc(C(=O)N(Cc3nccn3C)C(C)C)c(C)c2c1 | 0.527 | –
7 | CC(C)C(=O)N1CCCC(C(=O)Nc2cccc(-c3cc4ccccc4[nH]3)c2)C1 (stereo unspecified) | 1.04 | –
8 | CC(=O)c1cc(CN2CCCC(CCC(=O)Nc3ccccc3F)C2)cs1 (stereo unspecified) | 0.836 | –
9 | CN(C)c1ncccc1CNS(C)(=O)=O | 0.912 | –
10 | COCC(=O)Nc1cc(C(=O)NCC2OCCc3ccccc32)cc2ncn(CCc3ccccc3)c12 (stereo unspecified) | – | 0.867
11 | CCOc1ccc2nc(N3CCC(NCCc4nc(C)c5c(n4)CCC5)CC3)nc(C)c2c1 | – | 0.787
12 | COc1ccccc1CNC(=O)c1c(OC)cc(=O)n2c1CCN(Cc1cc(C)ccc1C)CC2 | – | 0.759
13 | COc1ccc2c(c1)OC(C)CN(C(=O)c1c(-c3ccccc3)noc1C)C2 (stereo unspecified) | – | 0.773
14 | C=CCOc1ccccc1CN1CCC(CC2CC2)(C(=O)OCC)CC1 | 0.931 | –
15 | COC(=O)c1ccc(-c2nc(CN3CCCC3c3nonc3C)c(C)o2)cc1 (stereo unspecified) | 0.806 | –
16 | COc1cccc(CCC2CCCN(C(=O)c3ccccn3)C2)c1 (stereo unspecified) | – | 0.823

Whole records, quoted from the list.
`COc1ccc(/C=C/C(=O)N2CCc3c(cnc(C)c3CNC(=O)Cc3ccsc3)C2)cc1` in the list: bacterial growth OD600 (polymyxin B 0.75 µg/mL): 0.819
`COC(=O)c1ccc(-c2nc(CN3CCCC3c3nonc3C)c(C)o2)cc1` (stereo unspecified) in the list: bacterial growth OD600 (polymyxin B 1 µg/mL): 0.806

Carrying on.

Row | Compound | bacterial growth OD600 (polymyxin B 1 µg/mL) | bacterial growth OD600 (polymyxin B 0.75 µg/mL)
17 | COCCn1cnc2cc(NC(=O)C3CCCCC3)cc(C(=O)NCc3cc(F)ccc3C)c21 | – | 0.874
18 | C/C=C(\C)CN1CCCC(C(=O)Nc2ccccc2-c2ccc(OC)cc2)C1 (stereo unspecified) | 1.19 | –
19 | CC(C)OCCNC(=O)C1CC(Cc2ccc(F)cc2)=NO1 (stereo unspecified) | – | 0.919
20 | COc1ccccc1C1(CC(=O)N(Cc2c(C)nn(C)c2C)C(C)C)CC(=O)N(C2CCCC2)C1=O (stereo unspecified) | – | 0.497
21 | CN(CC1CCN(CCc2cccc(F)c2)CC1)C(=O)CCc1cnn(C)c1 | 1.08 | –
22 | COC1CCCN(C(=O)CC2(c3cccc(C(F)(F)F)c3)CC(=O)N(C3CC3)C2=O)C1 (stereo unspecified) | – | 0.852
23 | COc1ccc(CN2CCN(Cc3ccc(F)c(F)c3)CC2CCO)cc1C (stereo unspecified) | 0.952 | –
24 | CCOC(=O)C1(Cc2ccccc2F)CCCN(Cc2csc(C(C)=O)c2)C1 (stereo unspecified) | 0.767 | –
25 | Cc1ccccc1Oc1ncccc1CNC(=O)CCc1cn[nH]c1 | 1.04 | –
26 | COCc1noc(-c2ccc(NCCSc3nccn3C)nc2)n1 | 0.973 | –
27 | CC(C)NC1CC(=O)N(Cc2cccc(F)c2)C1 (stereo unspecified) | 0.965 | –
28 | Cc1cc(C)n2nc(C(=O)N3CCC(CO)(Cc4ccccc4Cl)CC3)cc2n1 | – | 0.826
29 | CCOC(=O)C1(Cc2cccc(Cl)c2)CCCN(C(=O)c2ccco2)C1 (stereo unspecified) | 0.48 | –
30 | O=C(NCc1ccc(F)cc1)c1ccccc1OC1CCN(C(=O)c2cccnc2)CC1 | 1.22 | –
31 | O=C(NC1CCCN(Cc2ccccc2F)C1)c1cnn(Cc2ccccc2)c1 (stereo unspecified) | 0.97 | –
